Results published in the supplement of paper PMC10849652.
The other results are listed elsewhere or left out.

Amino acid sequences for entries named in this document (tags omitted). A change or cut given only in a name is not applied to a line headed by its entry.
UniProt P30536, whole entry, looked up: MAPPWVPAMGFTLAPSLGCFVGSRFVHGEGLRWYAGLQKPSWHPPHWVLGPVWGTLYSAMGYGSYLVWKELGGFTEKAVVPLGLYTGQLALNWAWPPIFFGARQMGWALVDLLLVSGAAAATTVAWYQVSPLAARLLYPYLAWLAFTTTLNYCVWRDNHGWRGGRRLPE
UniProt Q9Y5R8, whole entry, looked up: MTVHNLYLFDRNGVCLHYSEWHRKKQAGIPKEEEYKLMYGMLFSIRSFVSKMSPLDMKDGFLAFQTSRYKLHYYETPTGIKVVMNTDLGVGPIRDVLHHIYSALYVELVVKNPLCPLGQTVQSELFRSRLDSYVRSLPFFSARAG
UniProt Q8TDR0: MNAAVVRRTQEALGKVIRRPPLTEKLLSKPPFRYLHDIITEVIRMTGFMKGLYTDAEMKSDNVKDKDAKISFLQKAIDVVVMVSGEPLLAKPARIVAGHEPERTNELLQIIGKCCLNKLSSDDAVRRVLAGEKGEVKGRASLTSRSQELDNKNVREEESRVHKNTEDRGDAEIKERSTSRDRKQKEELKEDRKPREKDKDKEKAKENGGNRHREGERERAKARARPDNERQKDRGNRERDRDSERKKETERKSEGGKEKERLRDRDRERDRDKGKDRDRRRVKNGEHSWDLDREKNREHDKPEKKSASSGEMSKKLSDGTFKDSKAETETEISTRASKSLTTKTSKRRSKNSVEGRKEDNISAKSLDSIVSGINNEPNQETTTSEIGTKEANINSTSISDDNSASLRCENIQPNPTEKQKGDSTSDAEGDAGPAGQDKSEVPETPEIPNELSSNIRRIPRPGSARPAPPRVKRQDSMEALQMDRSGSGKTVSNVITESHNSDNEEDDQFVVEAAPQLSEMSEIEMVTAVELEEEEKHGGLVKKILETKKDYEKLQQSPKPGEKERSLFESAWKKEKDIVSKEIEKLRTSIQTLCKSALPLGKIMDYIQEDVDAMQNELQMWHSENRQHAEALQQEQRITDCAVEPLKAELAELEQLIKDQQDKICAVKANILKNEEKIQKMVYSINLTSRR
UniProt Q96AY4: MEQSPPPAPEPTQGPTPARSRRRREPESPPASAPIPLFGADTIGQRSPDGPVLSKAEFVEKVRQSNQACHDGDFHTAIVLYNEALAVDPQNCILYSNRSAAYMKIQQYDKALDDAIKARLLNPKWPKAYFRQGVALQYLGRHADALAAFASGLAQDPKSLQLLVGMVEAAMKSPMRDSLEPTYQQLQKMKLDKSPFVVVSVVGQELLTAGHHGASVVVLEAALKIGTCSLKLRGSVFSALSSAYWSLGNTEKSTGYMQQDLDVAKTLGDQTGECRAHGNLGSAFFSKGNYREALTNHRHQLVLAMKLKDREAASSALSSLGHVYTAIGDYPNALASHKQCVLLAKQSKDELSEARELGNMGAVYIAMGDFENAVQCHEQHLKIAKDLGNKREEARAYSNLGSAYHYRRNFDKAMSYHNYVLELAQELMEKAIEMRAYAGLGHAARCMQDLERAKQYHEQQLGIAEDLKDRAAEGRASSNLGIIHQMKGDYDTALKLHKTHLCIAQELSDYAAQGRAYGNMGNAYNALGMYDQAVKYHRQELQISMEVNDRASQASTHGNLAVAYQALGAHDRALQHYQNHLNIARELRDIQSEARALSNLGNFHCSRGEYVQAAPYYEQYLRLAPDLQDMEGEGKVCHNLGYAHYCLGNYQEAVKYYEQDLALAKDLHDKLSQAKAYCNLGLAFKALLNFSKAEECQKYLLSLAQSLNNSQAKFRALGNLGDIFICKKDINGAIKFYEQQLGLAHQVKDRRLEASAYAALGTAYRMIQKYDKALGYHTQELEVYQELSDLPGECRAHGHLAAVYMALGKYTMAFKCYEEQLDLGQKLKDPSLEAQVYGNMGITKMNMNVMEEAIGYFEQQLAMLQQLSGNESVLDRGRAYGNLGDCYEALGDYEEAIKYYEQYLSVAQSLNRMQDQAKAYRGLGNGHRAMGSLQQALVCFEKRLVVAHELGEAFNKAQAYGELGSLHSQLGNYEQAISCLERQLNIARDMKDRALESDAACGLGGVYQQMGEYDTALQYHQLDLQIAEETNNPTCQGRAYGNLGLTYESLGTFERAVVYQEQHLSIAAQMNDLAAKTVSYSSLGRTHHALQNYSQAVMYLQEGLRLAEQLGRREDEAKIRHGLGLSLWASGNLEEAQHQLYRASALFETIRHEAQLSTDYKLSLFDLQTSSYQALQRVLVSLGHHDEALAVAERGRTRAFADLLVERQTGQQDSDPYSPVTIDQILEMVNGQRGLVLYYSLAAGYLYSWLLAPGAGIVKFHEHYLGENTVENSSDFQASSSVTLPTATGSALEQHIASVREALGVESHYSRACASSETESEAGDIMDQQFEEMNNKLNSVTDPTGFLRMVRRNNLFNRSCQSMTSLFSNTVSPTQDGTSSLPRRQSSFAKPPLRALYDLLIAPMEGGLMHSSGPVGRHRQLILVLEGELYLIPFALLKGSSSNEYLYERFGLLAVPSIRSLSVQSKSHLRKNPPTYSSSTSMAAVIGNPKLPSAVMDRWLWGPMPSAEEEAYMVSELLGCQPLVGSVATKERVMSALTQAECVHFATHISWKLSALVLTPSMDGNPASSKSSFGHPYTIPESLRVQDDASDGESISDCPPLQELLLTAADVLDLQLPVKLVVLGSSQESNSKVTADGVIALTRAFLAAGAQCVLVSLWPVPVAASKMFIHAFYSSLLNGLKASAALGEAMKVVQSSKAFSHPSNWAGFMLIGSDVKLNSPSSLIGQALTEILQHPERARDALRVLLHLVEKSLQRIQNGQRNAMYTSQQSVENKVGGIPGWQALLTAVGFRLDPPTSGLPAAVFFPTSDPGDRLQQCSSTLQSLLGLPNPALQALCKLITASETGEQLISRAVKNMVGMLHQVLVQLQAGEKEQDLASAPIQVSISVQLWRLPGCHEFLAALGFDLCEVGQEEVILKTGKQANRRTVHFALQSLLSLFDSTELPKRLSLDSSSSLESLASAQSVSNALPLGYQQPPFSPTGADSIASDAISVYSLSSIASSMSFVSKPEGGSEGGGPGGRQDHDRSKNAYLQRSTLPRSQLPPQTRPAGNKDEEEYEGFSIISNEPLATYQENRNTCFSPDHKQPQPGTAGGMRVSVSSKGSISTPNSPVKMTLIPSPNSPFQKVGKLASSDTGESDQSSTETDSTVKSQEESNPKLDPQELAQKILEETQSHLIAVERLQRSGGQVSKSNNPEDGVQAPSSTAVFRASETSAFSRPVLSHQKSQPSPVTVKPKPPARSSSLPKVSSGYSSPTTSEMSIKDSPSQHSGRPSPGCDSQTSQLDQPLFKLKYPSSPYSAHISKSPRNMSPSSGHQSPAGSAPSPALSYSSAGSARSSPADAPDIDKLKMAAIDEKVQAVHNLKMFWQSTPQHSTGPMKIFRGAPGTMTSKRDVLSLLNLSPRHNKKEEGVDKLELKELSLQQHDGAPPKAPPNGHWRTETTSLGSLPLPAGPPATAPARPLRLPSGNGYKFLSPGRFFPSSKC
UniProt Q9BQ61: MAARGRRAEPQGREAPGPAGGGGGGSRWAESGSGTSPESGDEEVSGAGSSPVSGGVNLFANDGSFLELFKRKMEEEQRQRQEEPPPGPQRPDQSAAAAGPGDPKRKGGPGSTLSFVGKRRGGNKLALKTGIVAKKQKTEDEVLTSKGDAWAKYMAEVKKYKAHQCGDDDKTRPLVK
UniProt Q15645: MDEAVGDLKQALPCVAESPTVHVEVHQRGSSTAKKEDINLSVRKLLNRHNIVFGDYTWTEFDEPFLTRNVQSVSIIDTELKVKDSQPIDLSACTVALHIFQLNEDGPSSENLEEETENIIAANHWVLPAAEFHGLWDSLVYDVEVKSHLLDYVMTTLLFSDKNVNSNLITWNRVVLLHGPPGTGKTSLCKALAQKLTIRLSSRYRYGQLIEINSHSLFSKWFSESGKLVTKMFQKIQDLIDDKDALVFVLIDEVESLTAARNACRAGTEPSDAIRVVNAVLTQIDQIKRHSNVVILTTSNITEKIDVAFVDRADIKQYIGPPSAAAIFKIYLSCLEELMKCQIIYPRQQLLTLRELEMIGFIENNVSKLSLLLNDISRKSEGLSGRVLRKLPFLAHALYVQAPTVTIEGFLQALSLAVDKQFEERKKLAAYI
UniProt Q86SZ2: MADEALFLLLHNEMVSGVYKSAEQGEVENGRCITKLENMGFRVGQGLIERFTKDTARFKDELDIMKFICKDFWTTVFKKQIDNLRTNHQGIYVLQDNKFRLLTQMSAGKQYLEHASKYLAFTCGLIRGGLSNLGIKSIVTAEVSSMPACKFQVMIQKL
UniProt Q9BU70: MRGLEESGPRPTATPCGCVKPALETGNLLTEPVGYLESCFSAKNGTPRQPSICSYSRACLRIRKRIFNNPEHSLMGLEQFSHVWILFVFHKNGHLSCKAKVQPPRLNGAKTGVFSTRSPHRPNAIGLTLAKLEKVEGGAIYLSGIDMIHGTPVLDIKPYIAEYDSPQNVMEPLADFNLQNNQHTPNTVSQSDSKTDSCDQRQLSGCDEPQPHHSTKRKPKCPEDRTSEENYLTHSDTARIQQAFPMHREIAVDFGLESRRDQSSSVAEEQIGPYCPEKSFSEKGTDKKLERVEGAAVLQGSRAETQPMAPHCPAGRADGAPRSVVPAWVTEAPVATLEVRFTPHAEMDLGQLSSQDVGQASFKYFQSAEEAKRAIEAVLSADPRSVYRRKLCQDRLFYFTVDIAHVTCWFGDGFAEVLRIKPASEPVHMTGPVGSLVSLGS
UniProt Q8IUR0, whole entry, looked up: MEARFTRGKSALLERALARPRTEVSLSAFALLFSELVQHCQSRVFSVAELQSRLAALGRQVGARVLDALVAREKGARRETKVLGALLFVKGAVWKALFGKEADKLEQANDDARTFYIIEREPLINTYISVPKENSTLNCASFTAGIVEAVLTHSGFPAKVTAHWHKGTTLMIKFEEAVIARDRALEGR
UniProt Q9UL33, whole entry, looked up: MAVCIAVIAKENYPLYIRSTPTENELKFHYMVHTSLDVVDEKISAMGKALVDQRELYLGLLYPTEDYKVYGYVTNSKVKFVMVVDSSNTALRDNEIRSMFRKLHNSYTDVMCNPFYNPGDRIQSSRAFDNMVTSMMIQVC
UniProt Q9H892: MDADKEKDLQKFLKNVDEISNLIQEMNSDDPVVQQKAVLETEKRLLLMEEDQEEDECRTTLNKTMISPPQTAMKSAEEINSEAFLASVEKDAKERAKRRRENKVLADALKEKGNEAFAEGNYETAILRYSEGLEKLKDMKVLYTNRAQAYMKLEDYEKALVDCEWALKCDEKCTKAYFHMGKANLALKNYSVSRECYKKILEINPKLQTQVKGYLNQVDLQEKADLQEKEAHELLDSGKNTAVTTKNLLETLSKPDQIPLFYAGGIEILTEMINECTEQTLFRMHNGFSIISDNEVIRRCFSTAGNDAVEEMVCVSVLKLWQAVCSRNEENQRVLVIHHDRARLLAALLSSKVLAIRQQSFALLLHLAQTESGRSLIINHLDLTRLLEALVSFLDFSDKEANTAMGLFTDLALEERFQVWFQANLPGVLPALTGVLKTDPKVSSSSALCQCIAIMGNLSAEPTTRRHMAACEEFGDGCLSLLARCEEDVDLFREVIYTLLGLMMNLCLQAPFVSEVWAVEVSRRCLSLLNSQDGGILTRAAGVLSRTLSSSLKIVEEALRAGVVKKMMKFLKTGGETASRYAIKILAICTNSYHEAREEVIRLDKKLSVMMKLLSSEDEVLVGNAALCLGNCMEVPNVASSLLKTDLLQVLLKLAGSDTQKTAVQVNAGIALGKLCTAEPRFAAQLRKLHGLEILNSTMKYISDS
UniProt Q53H54: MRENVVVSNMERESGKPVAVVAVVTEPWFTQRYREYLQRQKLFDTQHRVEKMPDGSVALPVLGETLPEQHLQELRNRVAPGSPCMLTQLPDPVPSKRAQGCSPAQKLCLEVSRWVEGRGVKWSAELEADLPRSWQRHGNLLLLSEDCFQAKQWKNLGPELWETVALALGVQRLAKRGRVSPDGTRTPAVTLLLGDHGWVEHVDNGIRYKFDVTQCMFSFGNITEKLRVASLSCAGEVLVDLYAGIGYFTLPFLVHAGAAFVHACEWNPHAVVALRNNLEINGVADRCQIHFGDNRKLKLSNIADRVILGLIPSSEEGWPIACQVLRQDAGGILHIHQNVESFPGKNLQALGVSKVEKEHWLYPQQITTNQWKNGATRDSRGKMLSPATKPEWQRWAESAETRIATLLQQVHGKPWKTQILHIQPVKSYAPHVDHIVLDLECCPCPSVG
UniProt Q99614: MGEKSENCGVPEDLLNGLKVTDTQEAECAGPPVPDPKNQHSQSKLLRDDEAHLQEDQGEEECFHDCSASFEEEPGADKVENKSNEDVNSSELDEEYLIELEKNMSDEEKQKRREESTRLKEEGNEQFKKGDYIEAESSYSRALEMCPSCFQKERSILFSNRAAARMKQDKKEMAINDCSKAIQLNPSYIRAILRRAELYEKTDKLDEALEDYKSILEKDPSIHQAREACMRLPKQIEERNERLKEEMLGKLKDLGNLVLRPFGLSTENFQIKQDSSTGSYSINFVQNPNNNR

Assays:
Assay in all cases: log2 fold change, soluble protein after heating vs DMSO (PISA); higher = thermal stabilisation; K562 lysate, 10 uM; active = over 0.2 and 3.5 SD of the protein, either way, in both replicates (recomputed)
[1] = compound: C1=CC=C(C=C1)[C@H](COC2=CC3=C(C=C2)NC(=O)N3)NC(=O)C4=CC=CN(C4=O)CC5=CC(=C(C=C5)F)F
Method in brief: (§1)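 The values are log-two fold changes in thermal stability compared with solvent controls and come from duplicates. They were obtained by TMTpro 16plex LC-MS/MS, with channel sums equalised, on the supernatant after 21,000xg for 90 min. That supernatant came from crude K562 extract at 1 mg/mL protein treated with 10 μM compound for 30 min, heated for 3 min across 48°C-58°C, pooled and brought to 0.5% NP-40 at 4°C.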

[2] = compound: CC1=C(SC2=C1C(=N[C@H](C3=NN=C(N32)C)CC(=O)N)C4=CC=C(C=C4)Cl)C
Method in brief: as §1

[3] = compound: CC1=C2C(=CC=C1)N=C(N(C2=O)C3=CC=CC=C3C)CN4C=NC5=C(N=CN=C54)N
Method in brief: as §1

[4] = compound: Cc1sc2c(c1C)C(c1ccc(Cl)cc1)=N[C@@H](CC(=O)OC(C)(C)C)c1nnc(C)n1-2
Method in brief: as §1

[5] = compound: c1ccc([C@@H]2C[C@H]2NC2CCNCC2)cc1
Method in brief: as §1

Measured: log2 fold change

TRMT10A (UniProt Q8TBZ6)
inactive: [1] -0.046 | [2] 0.099 | [3] -0.025 | [4] 0.016 | [5] -0.029

TRIO (UniProt O75962)
inactive: [1] -0.05 | [2] 0.04 | [3] 0.058 | [4] 0.052 | [5] 0.004

TRMT1 (UniProt Q9NXH9)
inactive: [1] 0.005 | [2] 0 | [3] 0.012 | [4] -0.045 | [5] -0.012

TRAPPC4 (UniProt Q9Y296)
inactive: [1] -0.023 | [2] -0.01 | [3] 0.015 | [4] 0.013 | [5] 0.051

TSPAN14 (UniProt Q8NG11)
inactive: [1] -0.063 | [2] -0.036 | [3] 0 | [4] 0.014 | [5] -0.027

TTC39B (UniProt Q5VTQ0)
inactive: [1] -0.072 | [2] -0.001 | [3] -0.418 | [4] 0.025

TTC9C (UniProt Q8N5M4)
inactive: [1] -0.033 | [2] 0.049 | [3] 0.01 | [4] 0.033 | [5] -0.035

TRMT1L (UniProt Q7Z2T5)
inactive: [1] 0.033 | [2] -0.024 | [3] 0.09 | [4] -0.025 | [5] -0.029

TRAFD1 (UniProt O14545)
inactive: [1] 0.02 | [2] 0.001 | [3] -0.013 | [4] 0.006 | [5] -0.008

TSPO (UniProt P30536)
inactive: [1] -0.088 | [2] -0.119 | [3] 0.017 | [4] -0.108 | [5] -0.079

TRAPPC1 (UniProt Q9Y5R8)
inactive: [1] 0.039 | [2] 0.077 | [3] -0.009 | [4] 0.024 | [5] -0.088

TSC2 isoform 4 (UniProt P49815)
inactive: [1] 0.036 | [2] 0.055 | [3] -0.019 | [4] -0.052 | [5] -0.012

TRAF3IP1 (UniProt Q8TDR0)
inactive: [1] 0.056 | [2] 0.071 | [3] 0.061 | [4] -0.029

TRIM33 isoform 2 (UniProt Q9UPN9)
inactive: [1] 0.003 | [2] 0.009 | [3] 0.022 | [4] 0.011 | [5] 0.005

TSC22D1 (UniProt Q15714)
inactive: [1] 0.03 | [2] -0.021 | [3] -0.006 | [4] -0.041 | [5] 0.023

TSN (UniProt Q15631)
inactive: [1] -0.019 | [2] -0.007 | [3] 0.001 | [4] -0.002 | [5] -0.034

TTC28 (UniProt Q96AY4)
inactive: [1] 0.028 | [2] -0.015 | [3] -0.071

TRIM5 (UniProt Q9C035)
inactive: [1] 0.068 | [2] 0.026 | [3] -0.032 | [4] -0.044 | [5] -0.004

TSC22D2 (UniProt O75157)
inactive: [1] -0.033 | [2] 0.023 | [3] 0.009 | [4] 0.047 | [5] -0.066

TRAPPC2 isoform 3 (UniProt P0DI81)
inactive: [1] 0.009 | [2] -0.025 | [3] 0.01 | [4] 0.054 | [5] -0.01

TTC13 (UniProt Q8NBP0)
inactive: [1] -0.017 | [2] 0.076 | [3] 0.033

TRAPPC12 (UniProt Q8WVT3)
inactive: [1] 0.005 | [2] -0.016 | [3] -0.023 | [4] 0.003 | [5] 0.015

TRIR (UniProt Q9BQ61)
inactive: [1] 0.081 | [2] -0.035 | [3] -0.019 | [4] -0.044 | [5] -0.066

TRIP13 (UniProt Q15645)
inactive: [1] 0.006 | [2] 0.015 | [3] 0.018 | [4] 0.01 | [5] 0.049

TRAPPC6B (UniProt Q86SZ2)
inactive: [1] 0 | [2] -0.02 | [3] 0.023 | [4] 0.024 | [5] -0.038

TRIM44 (UniProt Q96DX7)
inactive: [1] 0.096 | [2] -0.126 | [3] -0.061 | [4] -0.031 | [5] 0.083

13 neighbouring entries already listed, for reference:
TRAF3IP1 (UniProt Q8TDR0)
inactive: [1] 0.056 | [2] 0.071 | [3] 0.061 | [4] -0.029

TRIM33 isoform 2 (UniProt Q9UPN9)
inactive: [1] 0.003 | [2] 0.009 | [3] 0.022 | [4] 0.011 | [5] 0.005

TSC22D1 (UniProt Q15714)
inactive: [1] 0.03 | [2] -0.021 | [3] -0.006 | [4] -0.041 | [5] 0.023

TSN (UniProt Q15631)
inactive: [1] -0.019 | [2] -0.007 | [3] 0.001 | [4] -0.002 | [5] -0.034

TTC28 (UniProt Q96AY4)
inactive: [1] 0.028 | [2] -0.015 | [3] -0.071

TRIM5 (UniProt Q9C035)
inactive: [1] 0.068 | [2] 0.026 | [3] -0.032 | [4] -0.044 | [5] -0.004

TSC22D2 (UniProt O75157)
inactive: [1] -0.033 | [2] 0.023 | [3] 0.009 | [4] 0.047 | [5] -0.066

TRAPPC2 isoform 3 (UniProt P0DI81)
inactive: [1] 0.009 | [2] -0.025 | [3] 0.01 | [4] 0.054 | [5] -0.01

TTC13 (UniProt Q8NBP0)
inactive: [1] -0.017 | [2] 0.076 | [3] 0.033

TRAPPC12 (UniProt Q8WVT3)
inactive: [1] 0.005 | [2] -0.016 | [3] -0.023 | [4] 0.003 | [5] 0.015

TRIR (UniProt Q9BQ61)
inactive: [1] 0.081 | [2] -0.035 | [3] -0.019 | [4] -0.044 | [5] -0.066

TRIP13 (UniProt Q15645)
inactive: [1] 0.006 | [2] 0.015 | [3] 0.018 | [4] 0.01 | [5] 0.049

TRAPPC6B (UniProt Q86SZ2)
inactive: [1] 0 | [2] -0.02 | [3] 0.023 | [4] 0.024 | [5] -0.038

Going on with the list:

TTC37 (UniProt Q6PGP7)
inactive: [1] -0.08 | [2] 0.044 | [3] 0.16 | [4] -0.3

TRAPPC2L (UniProt H3BQQ8)
inactive: [1] -0.039 | [2] 0.013

TRMO (UniProt Q9BU70)
inactive: [1] 0.097 | [2] -0.148 | [3] -0.02 | [4] 0.123

TSC22D4 (UniProt Q9Y3Q8)
inactive: [1] 0.013 | [2] -0.009 | [3] 0.037 | [4] -0.01 | [5] -0.033

TRAPPC5 (UniProt Q8IUR0)
inactive: [1] -0.011 | [2] 0.048 | [3] 0.03 | [4] 0.046 | [5] 0.059

TRMT61B (UniProt Q9BVS5)
inactive: [1] 0.015 | [2] 0.039 | [3] 0.013 | [4] 0 | [5] -0.014

TRAPPC2L (UniProt Q9UL33)
inactive: [1] -0.017 | [2] 0.066 | [3] 0.071 | [4] 0.006 | [5] -0.041

TTLL12 (UniProt Q14166)
inactive: [1] -0.004 | [2] 0.013 | [3] 0.011 | [4] 0.015 | [5] 0.033

TTC5 (UniProt Q8N0Z6)
inactive: [1] -0.022 | [2] 0.009 | [3] 0.035 | [4] 0.039 | [5] 0.002

TRIOBP (UniProt Q9H2D6)
inactive: [1] -0.062 | [2] 0.002 | [3] -0.085 | [4] -0.046 | [5] -0.068

TTI1 (UniProt O43156)
inactive: [1] -0.004 | [2] -0.011 | [3] -0.004 | [4] 0.034 | [5] 0.051

TSEN2 (UniProt Q8NCE0)
inactive: [1] 0.034 | [2] 0.004 | [3] 0.08 | [4] -0.088 | [5] 0

TRAPPC13 isoform 4 (UniProt A5PLN9)
inactive: [1] -0.006 | [2] 0.029 | [3] 0.013 | [4] 0.046 | [5] -0.024

TTC12 isoform 2 (UniProt Q9H892)
inactive: [1] -0.123 | [2] -0.131 | [3] 0.033 | [4] 0.044 | [5] 0.058

TRAPPC8 (UniProt Q9Y2L5)
inactive: [1] -0.009 | [2] -0.024 | [3] 0.002 | [4] 0.013 | [5] 0.003

TRMT12 (UniProt Q53H54)
inactive: [1] 0.104 | [2] -0.023 | [3] -0.007 | [4] -0.061 | [5] 0.076

TRAPPC6A isoform 2 (UniProt O75865)
inactive: [1] 0.025 | [2] 0.046 | [3] -0.043 | [4] -0.003 | [5] 0.014

TTC19 (UniProt Q6DKK2)
inactive: [1] 0.003 | [2] 0.046 | [3] -0.003 | [4] -0.012 | [5] -0.045

TTC1 (UniProt Q99614)
inactive: [1] 0.054 | [2] 0.001 | [3] -0.006 | [4] -0.03 | [5] 0.015

TRIM11 (UniProt Q96F44)
inactive: [1] 0.028 | [2] 0.035 | [3] 0.04 | [4] -0.011 | [5] -0.001

TRIM65 (UniProt Q6PJ69)
inactive: [1] 0.051 | [2] -0.085 | [3] -0.016 | [4] 0.012 | [5] 0.039

TSR3 (UniProt Q9UJK0)
inactive: [1] 0.034 | [2] 0.034 | [3] 0.024 | [4] 0.002 | [5] -0.038

TROAP (UniProt Q12815)
inactive: [1] -0.008 | [2] 0.12 | [3] 0.024 | [4] 0.057 | [5] 0.096

TRIM32 (UniProt Q13049)
inactive: [1] -0.026 | [2] 0.024 | [3] 0.014 | [4] -0.091 | [5] 0.017

TRIP10 (UniProt Q15642)
inactive: [1] 0.128 | [2] -0.018 | [3] -0.008 | [4] -0.043 | [5] -0.047

TTC4 (UniProt O95801)
inactive: [1] -0.018 | [2] -0.003 | [3] 0.001 | [4] 0.033 | [5] -0.013

TRRAP (UniProt Q9Y4A5)
inactive: [1] -0.022 | [2] -0.021 | [3] 0.004 | [4] 0.015 | [5] 0.018

TSEN54 (UniProt Q7Z6J9)
inactive: [1] -0.006 | [2] 0.03 | [3] 0.014 | [4] 0.033 | [5] -0.027
